Test results published in PubChem BioAssay AID192 (DTP/NCI, 2004).
The list shows only some results of the screen, not a fair sample: it is rich in T/C values a quarter to a half above the control, in often repeated tests (any T/C) and in doses without a T/C. Further doses and runs are listed elsewhere. T/C gives the treated animals as a percentage of the vehicle group. Some doses have a count of surviving animals in place of a T/C: the source files T/C as zero there, which appears to mark a toxic dose or a test without result, not a measured value. Some survivor counts are full or nearly so, which does not show that the dose was tolerated: the source hardly ever lists a survival T/C far under the control, and the zero likely stands for such cases as well. Survivors were counted at the toxicity check, usually on the fifth day, unless a day is given; later deaths do not show. Schedules are NCI's codes, taken here to give the interval after Q, in days (D) or hours (H), and the number of doses after X. Some entries were tested several times; the values are given in rising order. For survival time, this PubChem deposit counts one and a half times the control or more as active, and values a quarter to a half above the control carry no call in these data; other NCI protocols may use other cut-offs. Some T/C values carry the count of animals alive at the toxicity check (mostly the fifth day); where none is given, no animal had died by that day.

Test system: BDF1 mice, B16 melanoma ip, median survival T/C
Experiment: NCI In Vivo Anticancer Drug Screen. Data for tumor model B16 Melanoma (intraperitoneal) in B6D2F1 (BDF1) mice
Settings: T/C endpoint: median survival time, higher T/C = longer survival
Procedure, shortened: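 The ratio T/C compares compound-treated mice with vehicle-treated controls, using survival or tumor size as the endpoint in a transplantable tumor model.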

[1] = dose: 5.0 mg/kg/injection, schedule: Q01DX009 (ip), vehicle: saline with Tween-80
[2] = dose: 100.0 mg/kg/injection, schedule: Q01DX009 (ip), vehicle: saline with Tween-80
[3] = dose: 200.0 mg/kg/injection, schedule: Q01DX009 (ip), vehicle: saline with Tween-80
[4] = dose: 100.0 mg/kg/injection, schedule: Q01DX009 (ip), vehicle: Klucel (hydroxypropylcellulose) (HPC)
[5] = dose: 37.5 mg/kg/injection, schedule: Q01DX009 (ip), vehicle: other
[6] = dose: 200.0 mg/kg/injection, schedule: Q01DX009 (ip), vehicle: Klucel (hydroxypropylcellulose) (HPC)
[7] = dose: 400.0 mg/kg/injection, schedule: Q01DX009 (ip), vehicle: Klucel (hydroxypropylcellulose) (HPC)
[8] = dose: 200.0 mg/kg/injection, schedule: Q04DX003 (ip), vehicle: saline with Tween-80
[9] = dose: 400.0 mg/kg/injection, schedule: Q04DX003 (ip), vehicle: saline with Tween-80
[10] = dose: 25.0 mg/kg/injection, schedule: Q01DX009 (ip), vehicle: saline with Tween-80
[11] = dose: 50.0 mg/kg/injection, schedule: Q01DX009 (ip), vehicle: saline with Tween-80
[12] = dose: 100.0 mg/kg/injection, schedule: Q04DX003 (ip), vehicle: saline with Tween-80

In the case of Cc1nc(N)nc(N)c1-c1ccc(Cl)c(Cl)c1, the T/C (dose: 1.5 mg/kg/injection, schedule: Q01DX009 (ip), vehicle: saline with Tween-80) is reported as 125 % of control, the T/C (dose: 2.5 mg/kg/injection, schedule: Q01DX009 (ip), vehicle: saline) is reported as 132 % of control and the T/C (dose: 3.0 mg/kg/injection, schedule: Q01DX009 (ip), vehicle: saline with Tween-80) is reported as 132 % of control. For the same compound, the T/C (dose: 4.0 mg/kg/injection, schedule: Q02DX009 (ip), vehicle: saline with Tween-80) was 129 % of control, the T/C (dose: 4.5 mg/kg/injection, schedule: Q01DX009 (ip), vehicle: saline with Tween-80) was 130 % of control and the survivor count [1] was 10 of 10. For the same compound, the survivor count (dose: 5.0 mg/kg/injection, schedule: Q01DX009 (ip), vehicle: saline) was 10 of 10, the survivor count (dose: 6.0 mg/kg/injection, schedule: Q04DX003 (ip), vehicle: saline with Tween-80) was 10 of 10 and the survivor count (dose: 8.0 mg/kg/injection, schedule: Q02DX009 (ip), vehicle: saline with Tween-80) was 10 of 10. For the same compound, the survivor count (dose: 10.0 mg/kg/injection, schedule: Q01DX009 (ip), vehicle: saline) was 9 of 10, the survivor count (dose: 16.0 mg/kg/injection, schedule: Q02DX009 (ip), vehicle: Klucel (hydroxypropylcellulose) (HPC)) was 10 of 10 and the survivor count (dose: 16.0 mg/kg/injection, schedule: Q02DX009 (ip), vehicle: saline with Tween-80) was 10 of 10. The survivor count (dose: 20.0 mg/kg/injection, schedule: Q01DX009 (ip), vehicle: saline) was 10 of 10, the survivor count [2] was 10 of 10 and the survivor count [3] was 10 of 10.
For O=C(O)CCC1CCCCC1=O (stereo not given), the T/C [4] was 132 % of control.
For CCCCCCCCCCCCCCCCCC[n+]1cccc(C(=O)N2CCOCC2)c1, the survivor count (dose: 32.0 mg/kg/injection, schedule: Q01DX009 (ip), vehicle: saline sonified) was 6 of 6.
Cn1cnc([N+](=O)[O-])c1[Se]c1nc(N)nc2nc[nH]c12 was tested, and the T/C (dose: 6.25 mg/kg/injection, schedule: Q01DX009 (ip), vehicle: water) was 135 % of control, the T/C (dose: 11.0 mg/kg/injection, schedule: Q01DX009 (ip), vehicle: other) was 133 % of control and the T/C (dose: 12.5 mg/kg/injection, schedule: Q01DX009 (ip), vehicle: water) was 139 % of control. The T/C (dose: 16.5 mg/kg/injection, schedule: Q01DX009 (ip), vehicle: other) was 137 % of control, the T/C (dose: 25.0 mg/kg/injection, schedule: Q01DX009 (ip), vehicle: other) was 135 and 142 % of control and the T/C [5] was 143 % of control [9 of 10 alive]. For the same compound, the survivor count [5] was 8 of 10, the survivor count (dose: 50.0 mg/kg/injection, schedule: Q01DX009 (ip), vehicle: water) was 4 of 10 and 8 of 10 and the survivor count (dose: 100.0 mg/kg/injection, schedule: Q01DX009 (ip), vehicle: water) was 0 of 10 and 2 of 10.
CCN(c1ccccc1C)S(=O)(=O)c1ccccc1 was tested, and the survivor count [6] was 10 of 10 and the survivor count [7] was 10 of 10.
In the case of O=C(c1cccc(C(=O)n2c3c(c4ccccc42)CCCC3)c1)n1c2c(c3ccccc31)CCCC2, the survivor count [2] is reported as 10 of 10, the survivor count [3] is reported as 8 of 10 and the survivor count (dose: 400.0 mg/kg/injection, schedule: Q01DX009 (ip), vehicle: saline with Tween-80) is reported as 8 of 10.
With COC[C@H]1OC(=O)c2coc3c2[C@@]1(C)C1=C(C3=O)[C@@H]2CCC(=O)[C@@]2(C)C[C@H]1OC(C)=O the survivor count (dose: 1.25 mg/kg/injection, schedule: Q01DX009 (ip), vehicle: saline with Tween-80) was 9 of 10, the survivor count (dose: 2.5 mg/kg/injection, schedule: Q01DX009 (ip), vehicle: saline with Tween-80) was 10 of 10 and the survivor count [1] was 8 of 10. For the same compound, the survivor count (dose: 10.0 mg/kg/injection, schedule: Q01DX009 (ip), vehicle: saline with Tween-80) was 1 of 10.
In the case of CCOC(=O)C(C#N)N=O (stereo not given), the survivor count (dose: 100.0 mg/kg/injection, schedule: Q01DX009 (ip), vehicle: saline) is reported as 5 of 10, the survivor count (dose: 200.0 mg/kg/injection, schedule: Q01DX009 (ip), vehicle: saline) is reported as 0 of 10 and the survivor count (dose: 200.0 mg/kg/injection, schedule: Q04DX003 (ip), vehicle: saline) is reported as 2 of 10.
For CC(=O)Nc1ccc([I+]c2ccc([N+](=O)[O-])cc2)cc1, the survivor count (dose: 12.5 mg/kg/injection, schedule: Q01DX009 (ip), vehicle: Klucel (hydroxypropylcellulose) (HPC)) was 10 of 10.
CCC(C)Sc1nc(N)nc2c1ncn2C1OC(CO)C(O)C1O (stereo not given) was tested, and the survivor count (dose: 300.0 mg/kg/injection, schedule: Q01DX009 (ip), vehicle: Klucel (hydroxypropylcellulose) (HPC)) was 10 of 10.
CCCCCCCCCCCCCCCCCCNC(=O)Nc1cccc(C)c1C was tested, and the survivor count [4] was 10 of 10, the survivor count [6] was 10 of 10 and the survivor count [7] was 9 of 9.
In the case of c1ccc([Te][Te]c2ccccc2)cc1, the T/C (dose: 12.0 mg/kg/injection, schedule: Q01DX009 (ip), vehicle: saline with Tween-80) is reported as 129 % of control and the T/C (dose: 24.0 mg/kg/injection, schedule: Q01DX009 (ip), vehicle: saline with Tween-80) is reported as 142 % of control.
O=C(Nc1ccc(Cl)cc1)Nc1ccccc1Cl was tested, and the survivor count (dose: 200.0 mg/kg/injection, schedule: Q01DX009 (ip), vehicle: gum acacia) was 10 of 10 and the survivor count (dose: 400.0 mg/kg/injection, schedule: Q01DX009 (ip), vehicle: gum acacia) was 9 of 9.
With Cc1ccc(S(=O)(=O)OCCN(CCOS(=O)(=O)c2ccc(C)cc2)c2ccc(F)cc2)cc1 the T/C (dose: 12.5 mg/kg/injection, schedule: Q01DX009 (ip), vehicle: saline) was 130 % of control, the survivor count (dose: 25.0 mg/kg/injection, schedule: Q01DX009 (ip), vehicle: saline + alcohol) was 6 of 10 and the T/C (dose: 25.0 mg/kg/injection, schedule: Q01DX009 (ip), vehicle: saline) was 134 % of control.
With O=C(O)C1C2CCC1C2 (stereo not given) the survivor count [8] was 9 of 10 and the survivor count [9] was 7 of 10.
With CC(C)=CCC/C(C)=C\CCl the survivor count [2] was 9 of 10 and the survivor count [3] was 4 of 10.
O/N=C1\CCCC\C1=N/O.O/N=C1\CCCC\C1=N/O.[Pd] was tested, and the survivor count (dose: 100.0 mg/kg/injection, schedule: Q04DX003 (ip), vehicle: other) was 10 of 10, the survivor count (dose: 200.0 mg/kg/injection, schedule: Q04DX003 (ip), vehicle: other) was 10 of 10 and the survivor count (dose: 400.0 mg/kg/injection, schedule: Q04DX003 (ip), vehicle: other) was 10 of 10.
C1CC[N-]CC1.CC(=N\O)/C(C)=N/O.CC(=N\O)/C(C)=N/O.[CH-]1CCCCC1.[Co+2] was tested, and the survivor count [6] was 9 of 10.
For COc1cc(C(=O)O)c2c(c1C)OC(=O)c1c(C)cc(O)c(C=O)c1O2, the T/C (dose: 12.5 mg/kg/injection, schedule: Q04DX003 (ip), vehicle: saline with Tween-80) was 126 % of control [9 of 10 alive], the T/C (dose: 16.5 mg/kg/injection, schedule: Q01DX009 (ip), vehicle: saline with Tween-80) was 128 % of control and the T/C [10] was 134 % of control. The T/C (dose: 37.5 mg/kg/injection, schedule: Q01DX009 (ip), vehicle: saline with Tween-80) was 128 % of control, the survivor count (dose: 50.0 mg/kg/injection, schedule: Q01DX009 (ip), vehicle: Klucel (hydroxypropylcellulose) (HPC)) was 9 of 10 and the survivor count [11] was 4 of 10. The survivor count [2] was 4 of 10, the survivor count [12] was 1 of 10 and the survivor count [8] was 0 of 10. For the same compound, the survivor count [9] was 0 of 10.
With COc1cccc2c1C(=N)c1c(O)c3c(c(O)c1C2=O)C[C@@](O)(C(=O)CO)C[C@@H]3OC1CC(N)C(O)C(C)O1 (stereo not given in full) the survivor count (dose: 200.0 mg/kg/injection, schedule: Q01DX001 (ip), vehicle: water) was 9 of 10 and the survivor count (dose: 400.0 mg/kg/injection, schedule: Q01DX001 (ip), vehicle: water) was 7 of 10.
For O=C1C(=O)c2ccccc2-c2ccccc21, the T/C [10] was 141 % of control, the survivor count [11] was 10 of 10 and the survivor count [2] was 10 of 10. For the same compound, the survivor count [12] was 9 of 10 and the survivor count [8] was 4 of 10.
